Assay results reported in the supplement of paper PMC4604168 (melanoma cell lines).
The other results are listed elsewhere or left out. Repeats are few or missing, and single values can be far off.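 Imaging used 1,536-well plates; nuclei positive for cleaved PARP by antibody were divided by total DNA-stained nuclei to yield the apoptosis fraction. Doses for screening kept most cells viable, and cell lines differ markedly in resting and induced cleaved-PARP levels.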

Experiments:
Test in all cases: cleaved PARP positive nuclei fraction relative to DMSO control; melanoma cells; higher = more apoptosis
Conditions in all cases: library dose: low library concentration; 72 h
[1] = tested on: MZ2-MEL
[2] = tested on: MeWo
[3] = tested on: RPMI7951
[4] = tested on: RVH-421
[5] = tested on: SkMel28
[6] = tested on: SkMel2
[7] = tested on: SkMel30
[8] = tested on: UACC62

SMILES	cleaved PARP positive nuclei fraction [1]	cleaved PARP positive nuclei fraction [2]	cleaved PARP positive nuclei fraction [3]	cleaved PARP positive nuclei fraction [4]	cleaved PARP positive nuclei fraction [5]	cleaved PARP positive nuclei fraction [6]	cleaved PARP positive nuclei fraction [7]	cleaved PARP positive nuclei fraction [8]
C[As](C)SC[C@H](NC(=O)CC[C@H](N)C(=O)O)C(=O)NCC(=O)O [Darinaparsin] + Cn1nnc2c(C(N)=O)ncn2c1=O [temozolomide] (first compound 0.4 µM, partner dose 2 µM)	104%	152%	94.9%	232%	47.2%	102%	145%	70.3%
CC(C)C[C@H](NC(=O)[C@H](Cc1ccccc1)NC(=O)c1cnccn1)B(O)O [Bortezomib] + N.N.[Cl][Pt][Cl] [cisplatin] (first compound 0.001 µM, partner dose 1.6 µM)	220%	148%	134%	243%	74%	67.2%	102%	50.8%
Cn1cc(C2=C(c3cn(C4CCN(Cc5ccccn5)CC4)c4ccccc34)C(=O)NC2=O)c2ccccc21 [Enzastaurin] + C[C@]1(O)C[C@@H](c2nc(-c3ccc4ccc(-c5ccccc5)nc4c3)c3c(N)nccn32)C1 [OSI906] (first compound 0.8 µM, partner dose 0.4 µM)	29.5%	149%	100%	186%	78.9%	89.1%	32.7%	219%
Cc1ccc(Nc2nccc(N(C)c3ccc4c(C)n(C)nc4c3)n2)cc1S(N)(=O)=O [Pazopanib] + C[As](C)SC[C@H](NC(=O)CC[C@H](N)C(=O)O)C(=O)NCC(=O)O [Darinaparsin] (first compound 0.4 µM, partner dose 0.4 µM)	29.7%	125%	164%	89.2%	87.2%	169%	52%	94.8%
Cn1cc(C2=C(c3cn(C4CCN(Cc5ccccn5)CC4)c4ccccc34)C(=O)NC2=O)c2ccccc21 [Enzastaurin] + CCCCCCCCc1ccc(CCC(N)(CO)CO)cc1 [fingolimod] (first compound 0.8 µM, partner dose 2 µM)	47.2%	28.9%	38.2%	73.3%	49.9%	61.1%	69.7%	266%
N.N.[Cl][Pt][Cl] [cisplatin] + CC(=O)c1c(C)c2cnc(Nc3ccc(N4CCNCC4)cn3)nc2n(C2CCCC2)c1=O [palbociclib] (first compound 1.6 µM, partner dose 0.04 µM)	380%	141%	71.9%	71.4%	87.2%	158%	146%	113%
NC(=O)c1ccc(N(C(N)=O)c2c(F)cccc2F)nc1-c1ccc(F)cc1F + C[As](C)SC[C@H](NC(=O)CC[C@H](N)C(=O)O)C(=O)NCC(=O)O [Darinaparsin] (first compound 0.4 µM, partner dose 0.4 µM)	46.2%	167%	94.9%	138%	113%	81.5%	85.2%	83.7%
CC(=O)c1c(C)c2cnc(Nc3ccc(N4CCNCC4)cn3)nc2n(C2CCCC2)c1=O [palbociclib] + C[As](C)SC[C@H](NC(=O)CC[C@H](N)C(=O)O)C(=O)NCC(=O)O [Darinaparsin] (first compound 0.04 µM, partner dose 0.4 µM)	127%	282%	264%	184%	48.1%	39.9%	95.2%	267%
Cn1cc(C2=C(c3cn(C4CCN(Cc5ccccn5)CC4)c4ccccc34)C(=O)NC2=O)c2ccccc21 [Enzastaurin] + Cc1cc(Nc2cc(N3CCN(C)CC3)nc(/C=C/c3ccccc3)n2)n[nH]1 [ENMD2076] (first compound 0.8 µM, partner dose 0.04 µM)	20.6%	93.3%	115%	1030%	82.9%	22.3%	68.3%	96.6%
C[As](C)SC[C@H](NC(=O)CC[C@H](N)C(=O)O)C(=O)NCC(=O)O [Darinaparsin] + Cc1nc(Nc2ncc(C(=O)Nc3c(C)cccc3Cl)s2)cc(N2CCN(CCO)CC2)n1 [dasatanib] (first compound 0.4 µM, partner dose 0.004 µM)	56.7%	167%	209%	95.1%	115%	88.5%	72.1%	175%
N.N.[Cl][Pt][Cl] [cisplatin] + Cn1nnc2c(C(N)=O)ncn2c1=O [temozolomide] (first compound 1.6 µM, partner dose 2 µM)	102%	69.3%	43.4%	111%	201%	60.5%	18.7%	134%
CC(C)C[C@H](NC(=O)[C@H](Cc1ccccc1)NC(=O)c1cnccn1)B(O)O [Bortezomib] + C[As](C)SC[C@H](NC(=O)CC[C@H](N)C(=O)O)C(=O)NCC(=O)O [Darinaparsin] (first compound 0.001 µM, partner dose 0.4 µM)	97.7%	185%	60.5%	245%	68.7%	152%	99.2%	92.5%
Cc1cc(Nc2cc(N3CCN(C)CC3)nc(Sc3ccc(NC(=O)C4CC4)cc3)n2)n[nH]1 [Tozasertib] + Cn1cc(C2=C(c3cn(C4CCN(Cc5ccccn5)CC4)c4ccccc34)C(=O)NC2=O)c2ccccc21 [Enzastaurin] (first compound 0.006 µM, partner dose 0.8 µM)	240%	74.4%	232%	51.9%	71.5%	165%	180%	65.1%
Cc1ccc(Nc2nccc(N(C)c3ccc4c(C)n(C)nc4c3)n2)cc1S(N)(=O)=O [Pazopanib] + Cn1cc(C2=C(c3cn(C4CCN(Cc5ccccn5)CC4)c4ccccc34)C(=O)NC2=O)c2ccccc21 [Enzastaurin] (first compound 0.4 µM, partner dose 0.8 µM)	95.1%	54.6%	116%	88.9%	84.2%	33.1%	69%	90.7%
Cn1cnc2c(F)c(Nc3ccc(Br)cc3Cl)c(C(=O)NOCCO)cc21 [selumetinib] + C[As](C)SC[C@H](NC(=O)CC[C@H](N)C(=O)O)C(=O)NCC(=O)O [Darinaparsin] (first compound 0.015 µM, partner dose 0.4 µM)	121%	91.8%	70.7%	202%	99.7%	280%	123%	106%
Cn1sc(=O)n(Cc2ccccc2)c1=O + C[As](C)SC[C@H](NC(=O)CC[C@H](N)C(=O)O)C(=O)NCC(=O)O [Darinaparsin] (first compound 0.4 µM, partner dose 0.4 µM)	113%	69.2%	46.1%	49.4%	34.2%	86.4%	31.8%	99.8%
Cn1cc(C2=C(c3cn(C4CCN(Cc5ccccn5)CC4)c4ccccc34)C(=O)NC2=O)c2ccccc21 [Enzastaurin] + COc1ccc(C2=N[C@@H](c3ccc(Cl)cc3)[C@@H](c3ccc(Cl)cc3)N2C(=O)N2CCNC(=O)C2)c(OC(C)C)c1 [Nutlin-3] (first compound 0.8 µM, partner dose 0.1 µM)	152%	48.8%	85.6%	90.1%	37.9%	60.7%	38.9%	65.1%
N#CC[C@H](C1CCCC1)n1cc(-c2ncnc3[nH]ccc23)cn1 [ruxolitinib] + Cn1cc(C2=C(c3cn(C4CCN(Cc5ccccn5)CC4)c4ccccc34)C(=O)NC2=O)c2ccccc21 [Enzastaurin] (first compound 1 µM, partner dose 0.8 µM)	90.5%	71.4%	150%	80.3%	144%	62.8%	43.9%	44.2%
Cn1cc(C2=C(c3cn(C4CCN(Cc5ccccn5)CC4)c4ccccc34)C(=O)NC2=O)c2ccccc21 [Enzastaurin] + COCC[n+]1c2c(n(Cc3cnccn3)c1C)C(=O)c1ccccc1C2=O [YM155] (first compound 0.8 µM, partner dose 0.0004 µM)	335%	73.6%	156%	310%	44.7%	183%	37.2%	48.6%
Cc1cn(-c2cc(NC(=O)c3ccc(C)c(Nc4nccc(-c5cccnc5)n4)c3)cc(C(F)(F)F)c2)cn1 [nilotinib] + N.N.[Cl][Pt][Cl] [cisplatin] (first compound 0.2 µM, partner dose 1.6 µM)	66.9%	176%	39.7%	62.4%	49.6%	35.5%	31.4%	102%
Cc1cn(-c2cc(NC(=O)c3ccc(C)c(Nc4nccc(-c5cccnc5)n4)c3)cc(C(F)(F)F)c2)cn1 [nilotinib] + Cn1cc(C2=C(c3cn(C4CCN(Cc5ccccn5)CC4)c4ccccc34)C(=O)NC2=O)c2ccccc21 [Enzastaurin] (first compound 0.2 µM, partner dose 0.8 µM)	95%	21.6%	232%	66.6%	72.4%	135%	76.2%	96.2%
Cn1cc(C2=C(c3cn(C4CCN(Cc5ccccn5)CC4)c4ccccc34)C(=O)NC2=O)c2ccccc21 [Enzastaurin] + O=C(O)[C@@H]1[O][Sb](=[O])([O][Sb]2(=[O])[O][C@H]([C@H](O)CO)[C@H](O)[C@H](C(=O)O)[O]2)[O][C@H]([C@H](O)CO)[C@@H]1O [stibogluconate] (first compound 0.8 µM, partner dose 2 µM)	64.7%	54.2%	38.8%	76.8%	50.1%	126%	70.3%	48.5%
Cn1cc(C2=C(c3cn(C4CCN(Cc5ccccn5)CC4)c4ccccc34)C(=O)NC2=O)c2ccccc21 [Enzastaurin] + C[C@]1(c2nc3c(C(N)=O)cccc3[nH]2)CCCN1 [Veliparib] (first compound 0.8 µM, partner dose 1.4 µM)	54.2%	81.6%	83.5%	112%	45.9%	91.8%	114%	46.1%

A different layout for some results above.
SMILES,cleaved PARP positive nuclei fraction [1],cleaved PARP positive nuclei fraction [2],cleaved PARP positive nuclei fraction [3],cleaved PARP positive nuclei fraction [4],cleaved PARP positive nuclei fraction [5],cleaved PARP positive nuclei fraction [6],cleaved PARP positive nuclei fraction [7],cleaved PARP positive nuclei fraction [8]
"CC(C)C[C@H](NC(=O)[C@H](Cc1ccccc1)NC(=O)c1cnccn1)B(O)O [Bortezomib] + N.N.[Cl][Pt][Cl] [cisplatin] (first compound 0.001 µM, partner dose 1.6 µM)",220%,148%,134%,243%,74%,67.2%,102%,50.8%
"Cn1cc(C2=C(c3cn(C4CCN(Cc5ccccn5)CC4)c4ccccc34)C(=O)NC2=O)c2ccccc21 [Enzastaurin] + C[C@]1(c2nc3c(C(N)=O)cccc3[nH]2)CCCN1 [Veliparib] (first compound 0.8 µM, partner dose 1.4 µM)",54.2%,81.6%,83.5%,112%,45.9%,91.8%,114%,46.1%
